One compound from PMC6713165, “Identification of 1H-pyrazolo[3,4-b]pyridine derivatives as potent ALK-L1196M inhibitors” (Journal of Enzyme Inhibition and Medicinal Chemistry, 2019) can be followed below.

One may read the efflux ratio as the permeability from basolateral to apical divided by that in the opposite direction, in the common usage. The Papp B→A is the apparent permeability from the basolateral to the apical side of a cell layer.

The series in a line: Permeability assessment using Caco-2 cells. The format is in vitro ADME. The settings on record: human. How it is done:
Stock solutions (10 mM) of reference compounds and 10g were diluted to a concentration of 10 µM with the transport buffer (HBSS + 1%BSA) and the test compounds were applied to the apical or basolateral side of the cell monolayer. Permeability of the test compounds from A to B direction or B to A direction was assessed in duplicate over a 120 min incubation at 37 °C and 5% CO2 with a relative humidity of 95%. In addition, the efflux ratio of each compound was also determined. Reference compounds and 10g were quantified by LC-MS/MS analysis based on the peak area ratio of analyte/the internal standard.
In general terms: Caco-2 cells form a polarised layer with tight junctions and transporters.

The structures appear in SMILES notation. Like-named read-outs stand apart in the source and are kept apart here. Bounds are passed on as bounds.

Consider `CC(C)NCC(O)COc1ccc(CC(N)=O)cc1` (stereo not drawn) [Atenolol], for which the Papp A→B at 120 min, 10 µM is, setting by setting: (Caco-2, Caco-2, 10 µM, 120 min, 37 °C, HBSS + 1%BSA, read-out: Mean Papp A to B) 1.69 ×10⁻⁶ cm/s; (Caco-2, Caco-2 permeability class from Papp (A to B), read-out: Rank Papp) under 2.5 ×10⁻⁶ cm/s. The recovery at 120 min, 10 µM (Caco-2, Caco-2, 10 µM, 120 min, read-out: Mean recovery % A to B) was found to be 92.6% and the recovery at 120 min, 10 µM (Caco-2, Caco-2, 10 µM, 120 min, read-out: Mean recovery % B to A) is 91.6%. The efflux ratio at 120 min, 10 µM (Caco-2, 10 µM, 120 min) turned out to be 1.27. For the same compound, the Papp B→A at 120 min, 10 µM (Caco-2, 10 µM, 120 min, 37 °C, HBSS + 1%BSA) worked out at 2.14 ×10⁻⁶ cm/s.
